The list shows a part of the results.
Columns and labels:
Experiment in all cases: glycan array binding signal (z-score within array); higher = stronger binding
Details in all cases: glycan notation: IUPAC condensed, linker removed
[1] = target: Gal(b1-4)GlcNAc(b1-3)Gal(b1-4)GlcNAc(b1-3)Gal(b1-4)GlcNAc(b1-2)Man(a1-3)[Gal(b1-4)GlcNAc(b1-3)Gal(b1-4)GlcNAc(b1-3)Gal(b1-4)GlcNAc(b1-2)Man(a1-6)]Man(b1-4)GlcNAc(b1-4)GlcNAc
Procedure, shortened: (§1)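 Glycan array binding is given as a within-array Z-score, which can be read as non-binding when negative. The arrays, 3228 of them, came from the Consortium for Functional Glycomics database and were retained only where the protein sequence was available. Z-scores were averaged across arrays of the same protein sequence at different concentrations or buffers and across linkers.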

[2] = target: Gal(b1-4)GlcNAc(b1-3)Gal(b1-4)GlcNAc(b1-3)Gal(b1-4)GlcNAc(b1-2)Man(a1-3)[Gal(b1-4)GlcNAc(b1-3)Gal(b1-4)GlcNAc(b1-3)Gal(b1-4)GlcNAc(b1-2)Man(a1-6)]Man(b1-4)GlcNAc(b1-4)[Fuc(a1-6)]GlcNAc
Procedure, shortened: as §1

[3] = target: Gal(b1-4)GlcNAc(b1-3)Gal(b1-4)GlcNAc(b1-3)Gal(b1-4)GlcNAc(b1-2)[Gal(b1-4)GlcNAc(b1-3)Gal(b1-4)GlcNAc(b1-3)Gal(b1-4)GlcNAc(b1-6)]Man(a1-6)[Gal(b1-4)GlcNAc(b1-3)Gal(b1-4)GlcNAc(b1-3)Gal(b1-4)GlcNAc(b1-2)Man(a1-3)]Man(b1-4)GlcNAc(b1-4)[Fuc(a1-6)]GlcNAc
Procedure, shortened: as §1

[4] = target: Gal(b1-4)GlcNAc(b1-3)Gal(b1-4)GlcNAc(b1-3)Gal(b1-4)GlcNAc(b1-3)Gal(b1-4)GlcNAc(b1-2)Man(a1-3)[Gal(b1-4)GlcNAc(b1-3)Gal(b1-4)GlcNAc(b1-3)Gal(b1-4)GlcNAc(b1-3)Gal(b1-4)GlcNAc(b1-2)Man(a1-6)]Man(b1-4)GlcNAc(b1-4)GlcNAc
Procedure, shortened: as §1

[5] = target: Gal(b1-4)GlcNAc(b1-3)Gal(b1-4)GlcNAc(b1-3)Gal(b1-4)GlcNAc(b1-3)Gal(b1-4)GlcNAc(b1-2)Man(a1-3)[Gal(b1-4)GlcNAc(b1-3)Gal(b1-4)GlcNAc(b1-3)Gal(b1-4)GlcNAc(b1-3)Gal(b1-4)GlcNAc(b1-2)Man(a1-6)]Man(b1-4)GlcNAc(b1-4)[Fuc(a1-6)]GlcNAc
Procedure, shortened: as §1

[6] = target: Gal(b1-4)GlcNAc(b1-3)Gal(b1-4)GlcNAc(b1-3)Gal(b1-4)GlcNAc(b1-3)Gal(b1-4)GlcNAc(b1-2)[Gal(b1-4)GlcNAc(b1-3)Gal(b1-4)GlcNAc(b1-3)Gal(b1-4)GlcNAc(b1-3)Gal(b1-4)GlcNAc(b1-6)]Man(a1-6)[Gal(b1-4)GlcNAc(b1-3)Gal(b1-4)GlcNAc(b1-3)Gal(b1-4)GlcNAc(b1-3)Gal(b1-4)GlcNAc(b1-2)Man(a1-3)]Man(b1-4)GlcNAc(b1-4)[Fuc(a1-6)]GlcNAc
Procedure, shortened: as §1

[7] = target: Gal(b1-4)GlcNAc(b1-3)Gal(b1-4)GlcNAc(b1-3)Gal(b1-4)GlcNAc(b1-3)Gal(b1-4)GlcNAc(b1-3)Gal(b1-4)GlcNAc(b1-2)Man(a1-3)[Gal(b1-4)GlcNAc(b1-3)Gal(b1-4)GlcNAc(b1-3)Gal(b1-4)GlcNAc(b1-3)Gal(b1-4)GlcNAc(b1-3)Gal(b1-4)GlcNAc(b1-2)Man(a1-6)]Man(b1-4)GlcNAc(b1-4)GlcNAc
Procedure, shortened: as §1

[8] = target: Gal(b1-4)GlcNAc(b1-3)Gal(b1-4)GlcNAc(b1-3)Gal(b1-4)GlcNAc(b1-3)Gal(b1-4)GlcNAc(b1-3)Gal(b1-4)GlcNAc(b1-2)Man(a1-3)[Gal(b1-4)GlcNAc(b1-3)Gal(b1-4)GlcNAc(b1-3)Gal(b1-4)GlcNAc(b1-3)Gal(b1-4)GlcNAc(b1-3)Gal(b1-4)GlcNAc(b1-2)Man(a1-6)]Man(b1-4)GlcNAc(b1-4)[Fuc(a1-6)]GlcNAc
Procedure, shortened: as §1

[9] = target: Gal(b1-4)GlcNAc(b1-3)Gal(b1-4)GlcNAc(b1-3)Gal(b1-4)GlcNAc(b1-3)Gal(b1-4)GlcNAc(b1-3)Gal(b1-4)GlcNAc(b1-2)[Gal(b1-4)GlcNAc(b1-3)Gal(b1-4)GlcNAc(b1-3)Gal(b1-4)GlcNAc(b1-3)Gal(b1-4)GlcNAc(b1-3)Gal(b1-4)GlcNAc(b1-6)]Man(a1-6)[Gal(b1-4)GlcNAc(b1-3)Gal(b1-4)GlcNAc(b1-3)Gal(b1-4)GlcNAc(b1-3)Gal(b1-4)GlcNAc(b1-3)Gal(b1-4)GlcNAc(b1-2)Man(a1-3)]Man(b1-4)GlcNAc(b1-4)[Fuc(a1-6)]GlcNAc
Procedure, shortened: as §1

[10] = target: Gal(b1-4)GlcNAc(b1-3)Gal(b1-4)GlcNAc(b1-3)Gal(b1-4)GlcNAc(b1-3)Gal(b1-4)GlcNAc(b1-3)Gal(b1-4)GlcNAc(b1-3)Gal(b1-4)GlcNAc(b1-2)Man(a1-3)[Gal(b1-4)GlcNAc(b1-3)Gal(b1-4)GlcNAc(b1-3)Gal(b1-4)GlcNAc(b1-3)Gal(b1-4)GlcNAc(b1-3)Gal(b1-4)GlcNAc(b1-3)Gal(b1-4)GlcNAc(b1-2)Man(a1-6)]Man(b1-4)GlcNAc(b1-4)GlcNAc
Procedure, shortened: as §1

[11] = target: Gal(b1-4)GlcNAc(b1-3)Gal(b1-4)GlcNAc(b1-3)GalNAc
Procedure, shortened: as §1

[12] = target: Gal(b1-4)GlcNAc(b1-3)Gal(b1-4)GlcNAc(b1-3)[Gal(b1-4)GlcNAc(b1-3)Gal(b1-4)GlcNAc(b1-6)]GalNAc
Procedure, shortened: as §1

[13] = target: Gal(b1-4)GlcNAc(b1-3)Gal(b1-4)GlcNAc(b1-6)[Gal(b1-3)]GalNAc
Procedure, shortened: as §1

[14] = target: Gal(b1-4)GlcNAc(b1-3)Gal(b1-4)[Fuc(a1-3)]GlcNAc(b1-3)Gal(b1-4)[Fuc(a1-3)]GlcNAc
Procedure, shortened: as §1

[15] = target: Gal(b1-4)GlcNAc(b1-3)GalNAc
Procedure, shortened: as §1

[16] = target: Gal(b1-4)GlcNAc(b1-3)[Fuc(a1-3)GlcNAc(b1-6)]Gal(b1-4)Glc
Procedure, shortened: as §1

[17] = target: Gal(b1-4)GlcNAc(b1-3)[Gal(b1-4)GlcNAc(b1-6)]Gal(b1-4)GlcNAc
Procedure, shortened: as §1

[18] = target: Gal(b1-4)GlcNAc(b1-3)[GlcNAc(b1-6)]Gal(b1-4)GlcNAc
Procedure, shortened: as §1

[19] = target: Gal(b1-4)GlcNAc(b1-6)Gal(b1-4)GlcNAc
Procedure, shortened: as §1

B1: EUL D1A (Oryza sativa) (protein)
chain: MFGFGHHHNQAPAAPSDPNQIFKIFCRANENYCLTVRDSAVVLAPVNPKDEHQHWFKDMRFSTKVKDGEGMPAFALVNKATGLAVKHSLGQSHPVKLVPFNPEYEDASVLWTESKDVGKGFRCIRMVNNTRLNLDAFHGDKDHGGVRDGTTVVLWEWCKGDNQSWKILPWGPEAHSSSPGAATACTIGGVPVHTVRVFSAAGEDYCLTVRNGTACLAPKNPRDDYQHWIKDMRHSNKIRDEEGYPAFALVNKVTGEAIKHSTGQGHPVKLVPYNPEYQDESVLWTESKDVGKGFRCIRMVNNIYLNFDAFHGDKDHGGIHDGTEIVLWKWCEGDNQRWKILPWILEQKLISEEDLNSAVDHHHHHH
Q: For B1, which “glycan array binding signal (z-score)” value [1] is on record?
A: 2.18

Q: What about the “glycan array binding signal (z-score)” value [2] of the same binder?
A: 1.45

Q: What about the “glycan array binding signal (z-score)” value [3] of the same binder?
A: 2.54

Q: What about the “glycan array binding signal (z-score)” value [4] of the same binder?
A: 2.32

Q: What about the “glycan array binding signal (z-score)” value [5] of the same binder?
A: 1.99

Q: And the “glycan array binding signal (z-score)” value [6]?
A: 2.71

Q: What about the “glycan array binding signal (z-score)” value [7] of the same binder?
A: 0.967

Q: What about the “glycan array binding signal (z-score)” value [8] of the same binder?
A: 0.176

Q: And the “glycan array binding signal (z-score)” value [9]?
A: 1.83

Q: And the “glycan array binding signal (z-score)” value [10]?
A: 0.339

Q: And the “glycan array binding signal (z-score)” value [11]?
A: 0.95

Q: And the “glycan array binding signal (z-score)” value [12]?
A: 1.06

Q: And the “glycan array binding signal (z-score)” value [13]?
A: 2.71

Q: What about the “glycan array binding signal (z-score)” value [14] of the same binder?
A: -0.649

Q: And the “glycan array binding signal (z-score)” value [15]?
A: -0.127

Q: And the “glycan array binding signal (z-score)” value [16]?
A: -1.18

Q: What about the “glycan array binding signal (z-score)” value [17] of the same binder?
A: -0.866

Q: What about the “glycan array binding signal (z-score)” value [18] of the same binder?
A: 0.786

Q: And the “glycan array binding signal (z-score)” value [19]?
A: -1.43

From the supplement of paper PMC8728848
